Assay results from article PMC7504102.

Chains of the proteins cited; added tags and fusions are not shown. Lines headed by an entry give the natural chain unless they say otherwise; changes in a name come on top.
UniProt Q96BY9: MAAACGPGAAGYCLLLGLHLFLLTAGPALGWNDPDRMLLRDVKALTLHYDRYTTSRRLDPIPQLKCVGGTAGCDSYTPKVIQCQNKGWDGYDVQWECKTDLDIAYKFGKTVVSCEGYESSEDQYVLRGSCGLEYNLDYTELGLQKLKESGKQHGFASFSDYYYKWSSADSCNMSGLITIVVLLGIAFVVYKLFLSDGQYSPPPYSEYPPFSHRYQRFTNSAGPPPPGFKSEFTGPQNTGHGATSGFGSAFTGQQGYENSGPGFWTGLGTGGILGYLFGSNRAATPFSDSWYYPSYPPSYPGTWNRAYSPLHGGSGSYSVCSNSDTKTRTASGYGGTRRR
UniProt Q96PC5: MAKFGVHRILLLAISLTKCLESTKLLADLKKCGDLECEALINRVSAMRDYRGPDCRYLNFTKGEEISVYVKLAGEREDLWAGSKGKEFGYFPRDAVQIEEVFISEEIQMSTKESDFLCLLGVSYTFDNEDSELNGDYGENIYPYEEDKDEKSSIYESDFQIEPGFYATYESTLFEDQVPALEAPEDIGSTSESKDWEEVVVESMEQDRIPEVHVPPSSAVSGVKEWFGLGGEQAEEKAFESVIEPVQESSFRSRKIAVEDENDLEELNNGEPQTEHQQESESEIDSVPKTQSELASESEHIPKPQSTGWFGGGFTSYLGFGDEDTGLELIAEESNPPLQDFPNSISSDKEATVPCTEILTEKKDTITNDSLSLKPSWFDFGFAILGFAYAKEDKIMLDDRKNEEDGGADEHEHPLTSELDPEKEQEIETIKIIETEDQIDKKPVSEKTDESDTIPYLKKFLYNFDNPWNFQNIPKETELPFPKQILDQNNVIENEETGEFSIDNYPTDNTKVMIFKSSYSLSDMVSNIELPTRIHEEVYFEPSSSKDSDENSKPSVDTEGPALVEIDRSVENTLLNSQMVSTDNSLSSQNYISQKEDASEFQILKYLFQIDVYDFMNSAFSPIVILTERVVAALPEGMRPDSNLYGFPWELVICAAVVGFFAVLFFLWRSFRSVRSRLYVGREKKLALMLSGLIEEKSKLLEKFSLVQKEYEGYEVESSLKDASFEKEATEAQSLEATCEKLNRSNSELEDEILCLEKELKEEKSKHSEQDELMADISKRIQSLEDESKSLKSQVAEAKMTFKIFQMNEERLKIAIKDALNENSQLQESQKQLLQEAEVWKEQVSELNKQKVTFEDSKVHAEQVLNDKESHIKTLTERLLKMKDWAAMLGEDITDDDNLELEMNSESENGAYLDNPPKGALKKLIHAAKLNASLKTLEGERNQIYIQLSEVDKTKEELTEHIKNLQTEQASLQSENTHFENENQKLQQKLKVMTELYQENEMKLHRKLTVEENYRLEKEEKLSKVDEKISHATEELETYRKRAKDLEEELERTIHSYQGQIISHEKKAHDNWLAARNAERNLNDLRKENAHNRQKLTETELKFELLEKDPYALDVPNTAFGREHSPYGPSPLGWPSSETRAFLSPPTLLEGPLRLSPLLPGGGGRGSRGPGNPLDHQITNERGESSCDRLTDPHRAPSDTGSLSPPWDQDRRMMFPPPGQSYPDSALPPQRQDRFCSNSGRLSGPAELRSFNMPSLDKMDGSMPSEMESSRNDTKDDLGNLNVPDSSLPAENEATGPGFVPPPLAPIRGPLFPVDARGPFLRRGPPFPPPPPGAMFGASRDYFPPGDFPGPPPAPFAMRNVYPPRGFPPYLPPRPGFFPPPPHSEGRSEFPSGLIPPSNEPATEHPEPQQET
UniProt O75340: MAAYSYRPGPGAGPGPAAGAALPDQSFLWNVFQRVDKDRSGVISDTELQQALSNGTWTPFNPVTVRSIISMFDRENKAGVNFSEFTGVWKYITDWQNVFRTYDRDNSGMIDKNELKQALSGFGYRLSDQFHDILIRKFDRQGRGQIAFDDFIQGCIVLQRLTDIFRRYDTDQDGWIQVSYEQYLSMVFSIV

What was measured:
[1] = target: StrepHA-SARAF_CytD-SGFP2 Δ1,2 (human) (UniProt Q96BY9); assay: pull-down; Strep-pulldown: StrepHA-SARAF_CytD-SGFP2 (WT or mutants) held on Strep-Tactin XT magnetic beads from cleared lysates of HEK293 (endogenous ALG-2) or HEK293 ALG-2KO cells co-expressing FLAG-ALG-2; HKM, 0.2% Nonidet P-40, 10 μM CaCl2, overnight 4 °C; WB with anti-ALG-2 or anti-FLAG
[2] = target: StrepHA-SARAF_CytD-SGFP2 Δ2,3 (human) (UniProt Q96BY9); assay: as above
[3] = target: SGFP2-fused cTAGE5 (human) (UniProt Q96PC5); assay: far-Western, overlay or dot blot; SGFP2-fused proteins immunoprecipitated with anti-GFP pAb from HEK293 ALG-2KD lysates, resolved and blotted; membrane probed with Nluc-ALG-2; luminescence read in TBS containing 100 μM CaCl2; only the binder purified
[4] = target: SGFP2-fused cTAGE5 (human) (UniProt Q96PC5); assay: pull-down; SGFP2-fused proteins held on protein G magnetic beads via anti-GFP pAb; incubated with Nluc-ALG-2 (300 ng/mL) in buffer HKM, 0.2% Nonidet P-40, 0.1% gelatin, 100 μM CaCl2, 2 h, 4 °C; bound luciferase activity relative to Sec31A-p (100%); only the binder purified

Substance	binding [1]	binding [2]	binding [3]	binding [4]
endogenous ALG-2 (from UniProt O75340 1-191)	no binding	no binding		
nanoluciferase (NanoLuc, Nluc)-fused ALG-2 (from UniProt O75340 1-191)			binds	binds

Results are given in words; binding and its absence hold for the method and conditions named. For some of these results: Binding can be weak; no strength is given. For some of these results: Binding seen in cells or lysates may run through a third protein.
